Laboratory results: patent EP4740933A1, “CLEANING COMPOSITION AND USE THEREOF” (Suzhou Oulit Biopharm Co., Ltd., priority 2023, dated 2025)

Test system: Reconstructed Human Epidermis
Assay: In vitro skin irritation: reconstructed human epidermis test (OECD TG 439)
Format: cell-based

**Q.** “Sodium laureth sulfate [Sodium laureth sulfate (AES)]” was tested. Which “OD value Mean” value did it give?
**A.** The value was 0.6498.

**Q.** With `CCCCCCCCCCCC(=O)N[C@@H](C)C(=O)O.N=C(N)NCCC[C@H](N)C(=O)O` [LA-Arg] as the molecule, how does the “OD value Mean” value read?
**A.** The value was 1.1080.

**Q.** With `CCCCCCCCCCCCOS(=O)(=O)[O-].[Na+]` [Positive control (PC)] as the molecule, how does the “OD value Mean” value read?
**A.** Its value is 0.0458.

**Q.** For `CCCCCCCCCCCCOS(=O)(=O)[O-].[Na+]` [Sodium dodecyl sulfate (K12), Sodium dodecyl sulfate], which “OD value Mean” value is on record?
**A.** Its value is 0.4640.

**Q.** For `CCCCCCCCCCCC(=O)NC(C)C(=O)[O-].[Na+]` (stereo not drawn) [LA-NaOH], which “OD value Mean” value is on record?
**A.** The value was 0.9895.

**Q.** How did the “OD value Mean” value turn out when `CCCCCCCCCCCC(=O)N[C@@H](C)C(=O)O` [Lauroyl alanine (LA), Lauroyl alanine] was run?
**A.** The value was 1.0866.

The amount applied is not stated for every result.
